Some entries share one result that the patent states for a list of compounds.
What was measured:
Type in all cases: in vivo
[1] = system: larvae of the mustard beetle (Phaedon cochleariae); experiment: Phaedon test (PHAECO spray treatment); settings: application rate 500 g/ha, after 7 d
[2] = system: caterpillars of the army worm (Spodoptera frugiperda); experiment: Spodoptera frugiperda test (SPODFR spray treatment); settings: application rate 500 g/ha, after 7 d
Lucilia cuprina larvae = experiment: Lucilia cuprina test (LUCICU); settings: application rate 100 ppm, after 2 d, treated horse meat
adult Musca domestica = experiment: Musca domestica test (MUSCDO); settings: application rate 20 ppm, after 2 d, treated sponge
Boophilus microplus = Boophilus microplus test (BOOPMI injection); settings: application rate 20 μg/animal, after 7 d, injection into abdomen
[3] = system: adult fleas (Ctenocephalides felis); experiment: Ctenocephalides felis; oral (CTECFE); settings: application rate 20 ppm, after 2 d, oral via citrated cattle blood

Nc1c(-c2ccc(I)cc2)c(C(F)(F)F)nn1-c1ncccn1 [Example 1-12]
≥ 80%: activity (effect in %, beetle larvae killed) [1] | activity (effect in %, caterpillars killed) [2] | activity (kill in %, larvae) (Lucilia cuprina larvae) | activity (kill in %, flies) (adult Musca domestica) | activity in % (100% = no tick laid fertile eggs) (Boophilus microplus) | activity (kill in %, fleas) [3]

Nc1c(-c2ccc(Cl)cc2F)c(C(F)(F)F)nn1-c1ncccn1 [Example 1-18]
≥ 80%: activity (effect in %, beetle larvae killed) [1] | activity (effect in %, caterpillars killed) [2] | activity (kill in %, larvae) (Lucilia cuprina larvae) | activity (kill in %, flies) (adult Musca domestica) | activity in % (100% = no tick laid fertile eggs) (Boophilus microplus) | activity (kill in %, fleas) [3]

Nc1c(-c2ccc(Br)cc2F)c(C(F)(F)F)nn1-c1ncccn1 [Example 1-22]
≥ 80%: activity (effect in %, beetle larvae killed) [1] | activity (effect in %, caterpillars killed) [2] | activity (kill in %, larvae) (Lucilia cuprina larvae) | activity (kill in %, flies) (adult Musca domestica) | activity in % (100% = no tick laid fertile eggs) (Boophilus microplus) | activity (kill in %, fleas) [3]

Nc1c(-c2cc(Cl)cc(Cl)c2)c(C(F)(F)F)nn1-c1ncccn1 [Example 1-81]
≥ 80%: activity (effect in %, beetle larvae killed) [1] | activity (effect in %, caterpillars killed) [2] | activity (kill in %, larvae) (Lucilia cuprina larvae) | activity (kill in %, flies) (adult Musca domestica) | activity in % (100% = no tick laid fertile eggs) (Boophilus microplus) | activity (kill in %, fleas) [3]

Nc1c(-c2ccc(OC(F)F)cc2)c(C(F)(F)F)nn1-c1ncccn1 [Example 4-3]
≥ 80%: activity (effect in %, beetle larvae killed) [1] | activity (effect in %, caterpillars killed) [2] | activity (kill in %, larvae) (Lucilia cuprina larvae) | activity (kill in %, flies) (adult Musca domestica) | activity in % (100% = no tick laid fertile eggs) (Boophilus microplus) | activity (kill in %, fleas) [3]

Nc1c(-c2ccc(Cl)cc2)c(C(F)(F)Cl)nn1-c1ncccn1 [Example 15-45]
≥ 80%: activity (effect in %, beetle larvae killed) [1] | activity (effect in %, caterpillars killed) [2] | activity (kill in %, larvae) (Lucilia cuprina larvae) | activity (kill in %, flies) (adult Musca domestica) | activity in % (100% = no tick laid fertile eggs) (Boophilus microplus)

Nc1c(-c2ccc(I)cc2)c(C(F)(F)Cl)nn1-c1ncccn1 [Example 15-51]
≥ 80%: activity (effect in %, beetle larvae killed) [1] | activity (effect in %, caterpillars killed) [2] | activity (kill in %, larvae) (Lucilia cuprina larvae) | activity (kill in %, flies) (adult Musca domestica) | activity in % (100% = no tick laid fertile eggs) (Boophilus microplus)

Nc1c(-c2ccc(Br)c(Cl)c2)c(C(F)(F)Cl)nn1-c1ncccn1 [Example 15-160]
≥ 80%: activity (effect in %, beetle larvae killed) [1] | activity (effect in %, caterpillars killed) [2] | activity (kill in %, larvae) (Lucilia cuprina larvae) | activity (kill in %, flies) (adult Musca domestica) | activity in % (100% = no tick laid fertile eggs) (Boophilus microplus)

Nc1c(-c2ccc(Br)c(Cl)c2)c(C(F)(F)Br)nn1-c1ncccn1 [Example 15-168]
≥ 80%: activity (effect in %, beetle larvae killed) [1] | activity (effect in %, caterpillars killed) [2] | activity (kill in %, larvae) (Lucilia cuprina larvae) | activity (kill in %, flies) (adult Musca domestica) | activity in % (100% = no tick laid fertile eggs) (Boophilus microplus)

Nc1c(-c2cc(C(F)(F)F)cc(C(F)(F)F)c2)c(C(F)(F)C(F)(F)F)nn1-c1ncccn1 [Example 18-234]
≥ 80%: activity (effect in %, beetle larvae killed) [1] | activity (effect in %, caterpillars killed) [2] | activity (kill in %, larvae) (Lucilia cuprina larvae) | activity (kill in %, flies) (adult Musca domestica) | activity in % (100% = no tick laid fertile eggs) (Boophilus microplus) | activity (kill in %, fleas) [3]

Nc1c(-c2cc(Cl)cc(C(F)(F)F)c2)c(C(F)(F)C(F)(F)F)nn1-c1ncccn1 [Example 18-236]
≥ 80%: activity (effect in %, beetle larvae killed) [1] | activity (effect in %, caterpillars killed) [2] | activity (kill in %, larvae) (Lucilia cuprina larvae) | activity (kill in %, flies) (adult Musca domestica) | activity in % (100% = no tick laid fertile eggs) (Boophilus microplus) | activity (kill in %, fleas) [3]

Nc1c(-c2cc(F)cc(C(F)(F)F)c2)c(C(F)(F)C(F)(F)F)nn1-c1ncccn1 [Example 18-237]
≥ 80%: activity (effect in %, beetle larvae killed) [1] | activity (effect in %, caterpillars killed) [2] | activity (kill in %, larvae) (Lucilia cuprina larvae) | activity (kill in %, flies) (adult Musca domestica) | activity in % (100% = no tick laid fertile eggs) (Boophilus microplus) | activity (kill in %, fleas) [3]

Nc1c(-c2ccc(Cl)c(C(F)(F)F)c2)c(C(F)(F)C(F)(F)F)nn1-c1ncccn1 [Example 18-244]
≥ 80%: activity (effect in %, beetle larvae killed) [1] | activity (effect in %, caterpillars killed) [2] | activity (kill in %, larvae) (Lucilia cuprina larvae) | activity (kill in %, flies) (adult Musca domestica) | activity in % (100% = no tick laid fertile eggs) (Boophilus microplus)
